In article PMC11099189:
Results are given in words; binding and its absence hold for the method and conditions named. Binding seen in cells or lysates may run through a third protein. Some binding calls cover weakened binding; strength is not graded here. For some of these results: Tags and fused reporters may be left off the sequences shown. Each block holds one molecule with its values, some of them ahead of it.

Sequences of proteins named here, by UniProt entry; tags and fusion partners are left off.
UniProt P53350: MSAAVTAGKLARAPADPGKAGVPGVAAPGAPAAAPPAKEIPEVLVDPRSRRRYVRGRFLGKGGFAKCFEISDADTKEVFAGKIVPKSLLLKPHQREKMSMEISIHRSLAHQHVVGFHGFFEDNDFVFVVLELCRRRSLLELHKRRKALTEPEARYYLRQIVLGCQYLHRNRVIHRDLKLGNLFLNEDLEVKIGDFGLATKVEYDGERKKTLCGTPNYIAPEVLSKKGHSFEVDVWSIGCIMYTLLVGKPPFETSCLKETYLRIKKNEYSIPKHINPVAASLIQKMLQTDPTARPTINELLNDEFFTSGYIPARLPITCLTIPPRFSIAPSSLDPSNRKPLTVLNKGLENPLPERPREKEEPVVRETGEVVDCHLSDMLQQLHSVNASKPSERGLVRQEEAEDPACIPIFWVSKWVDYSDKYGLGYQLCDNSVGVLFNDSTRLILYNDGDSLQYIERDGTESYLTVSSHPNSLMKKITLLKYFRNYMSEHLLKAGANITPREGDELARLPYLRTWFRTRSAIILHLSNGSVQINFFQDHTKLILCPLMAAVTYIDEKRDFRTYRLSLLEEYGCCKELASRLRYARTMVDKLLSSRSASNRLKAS

Legend:
[1] = molecular target: T1, Flag-tagged PKMYT1 (human) (UniProt Q99640); test: co-IP; Pa-Tu-8988T cells transduced with Flag-PKMYT1, Flag-PLK1 or Flag lentivirus; 2.5 mg whole-cell lysate, 1 ug anti-Flag antibody, protein G-sepharose, overnight; immunoblotting
T1 sequence: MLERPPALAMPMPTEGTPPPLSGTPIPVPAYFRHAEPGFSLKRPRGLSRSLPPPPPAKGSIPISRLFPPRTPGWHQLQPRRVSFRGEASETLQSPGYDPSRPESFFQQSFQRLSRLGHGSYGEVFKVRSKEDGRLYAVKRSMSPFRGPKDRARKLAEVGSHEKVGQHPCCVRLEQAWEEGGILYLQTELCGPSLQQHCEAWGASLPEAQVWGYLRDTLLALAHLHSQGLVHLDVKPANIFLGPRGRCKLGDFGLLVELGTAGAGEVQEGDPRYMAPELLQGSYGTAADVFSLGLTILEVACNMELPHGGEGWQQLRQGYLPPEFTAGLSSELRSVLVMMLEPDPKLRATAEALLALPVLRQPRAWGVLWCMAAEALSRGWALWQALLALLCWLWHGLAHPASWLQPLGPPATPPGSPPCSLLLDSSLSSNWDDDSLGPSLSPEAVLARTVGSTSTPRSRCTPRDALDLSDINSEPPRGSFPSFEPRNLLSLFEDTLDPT

[2] = molecular target: T2, endogenous PKMYT1 (human (endogenous in Pa-Tu-8988T, YAPC, Pa-Tu-8902, DAN-G)) (UniProt Q99640); test: co-IP; endogenous proteins in YAPC, Pa-Tu-8902 and DAN-G cells; 3-5 mg whole-cell lysate, 2 ug anti-PKMYT1, anti-PLK1 or IgG, protein G-sepharose, overnight; immunoblotting
T2 sequence: T1 sequence

Flag-PLK1 (human) = Flag-PLK1 (human) (UniProt P53350); test: co-IP; Pa-Tu-8988T cells transduced with Flag-PKMYT1, Flag-PLK1 or Flag lentivirus; 2.5 mg whole-cell lysate, 1 ug anti-Flag antibody, protein G-sepharose, overnight; immunoblotting
[3] = molecular target: endogenous PLK1 (human (endogenous in Pa-Tu-8988T, YAPC, Pa-Tu-8902, DAN-G)) (UniProt P53350); test: co-IP; endogenous proteins in YAPC, Pa-Tu-8902 and DAN-G cells; 3-5 mg whole-cell lysate, 2 ug anti-PKMYT1, anti-PLK1 or IgG, protein G-sepharose, overnight; immunoblotting

binding [1]: binds
binding [2]: binds
Molecule: endogenous PLK1 (from UniProt P53350 1-603) (enzyme)

binding (Flag-PLK1 (human)): binds
binding [3]: binds
B1: endogenous PKMYT1 (enzyme, UniProt Q99640 1-499)
chain: T1 sequence
